Data reported in US7232852B2, “Photopolymerizable compositions that include alicyclic/aromatic dioxiranes and novel dioxiranyl tetraoxaspiro [5.5] undecanes” (Curators of the University of Missouri, priority 2002, dated 2007).

Tests used:
[1] = Photoinitiated solution copolymerization of BMOCHM-TOSU/EPON 825 (FTIR, gel point); settings: equimolar mixture (20 wt %) in methylene chloride, 25° C., EPON 916 cm^−1, BMOCHM-TOSU 905 cm^−1
[2] = Photoinitiated solution homopolymerization of BMOCHM-TOSU (FTIR, gel point); assay type: physicochemical; settings: 20 wt % in methylene chloride, 26° C., 923 mW/cm^2
Protocol: The effect of irradiation time on the photoinitated homopolymerization of BMOCHM-TOSU monomer (20 wt % in methylene chloride) was evaluated by gel point determination and by FTIR spectroscopy. Selected IR absorption bands in the reaction mixture characteristic of hydroxyl, carbonyl and oxirane groups were monitored as a function of irradiation time. […] These observations indicate the possibility of homopolymer formation. The mixture gelled 1.5 min post irradiation.

Structure (SMILES): CC1CC2OC2CC1CC1COC2(OC1)OCC(CC1CC3OC3CC1C)CO2 (stereo not shown) [BMOCHM, 3,9-bis[(4-methyl-7-oxabicyclo[4.1.0]hept-3-yl)methyl]-1,5,7,11-tetraoxaspiro[5,5]undecane]
- Oxirane conversion ([1]; irradiation time 1 min): 5.5%
- Oxirane conversion ([1]; irradiation time 2 min): 10.6%
- Oxirane conversion ([1]; irradiation time 3 min): 14.0%
- Oxirane conversion ([1]; irradiation time 4 min): 14.9%
- Oxirane conversion ([1]; irradiation time 5 min): 21.8%
- Oxirane conversion ([1]; irradiation time 6 min): 26.7%
- Oxirane conversion ([1]; irradiation time 7 min): 26.9%
- IR absorbance region Rx/R0 ratio Carbonyl 1754–1744 cm^−1 ([2]; irradiation time 0.5 min): 1.06
- IR absorbance region Rx/R0 ratio Hydroxyl 352–3418 cm^−1 ([2]; irradiation time 0.5 min): 1.08
- IR absorbance region Rx/R0 ratio Oxirane 905 cm^−1 ([2]; irradiation time 0.5 min): 0.96
- IR absorbance region Rx/R0 ratio Carbonyl 1754–1744 cm^−1 ([2]; irradiation time 1 min): 1.14
- IR absorbance region Rx/R0 ratio Hydroxyl 352–3418 cm^−1 ([2]; irradiation time 1 min): 1.24
- IR absorbance region Rx/R0 ratio Oxirane 905 cm^−1 ([2]; irradiation time 1 min): 0.95
- IR absorbance region Rx/R0 ratio Carbonyl 1754–1744 cm^−1 ([2]; irradiation time 2 min): 1.45
- IR absorbance region Rx/R0 ratio Hydroxyl 352–3418 cm^−1 ([2]; irradiation time 2 min): 1.67
- IR absorbance region Rx/R0 ratio Oxirane 905 cm^−1 ([2]; irradiation time 2 min): 0.84
- IR absorbance region Rx/R0 ratio Carbonyl 1754–1744 cm^−1 ([2]; irradiation time 4 min): 3.22
- IR absorbance region Rx/R0 ratio Hydroxyl 352–3418 cm^−1 ([2]; irradiation time 4 min): 4.12
- IR absorbance region Rx/R0 ratio Oxirane 905 cm^−1 ([2]; irradiation time 4 min): 0.68
- IR absorbance region Rx/R0 ratio Carbonyl 1754–1744 cm^−1 ([2]; irradiation time 6 min): 3.23
- IR absorbance region Rx/R0 ratio Hydroxyl 352–3418 cm^−1 ([2]; irradiation time 6 min): 5.91
- IR absorbance region Rx/R0 ratio Oxirane 905 cm^−1 ([2]; irradiation time 6 min): 0.47
- IR absorbance region Rx/R0 ratio Carbonyl 1754–1744 cm^−1 ([2]; irradiation time 8 min): 2.64
- IR absorbance region Rx/R0 ratio Hydroxyl 352–3418 cm^−1 ([2]; irradiation time 8 min): 5.25
- IR absorbance region Rx/R0 ratio Oxirane 905 cm^−1 ([2]; irradiation time 8 min): 0.35
